According to PMC4534796:
Results are given in words; binding and its absence hold for the method and conditions named. In cells and extracts the contact can be indirect. Some binding calls cover weakened binding; strength is not graded here. Sequences can lack the tags named with a protein.

Amino acid sequences for entries named in this document (tags omitted).
UniProt Q99558: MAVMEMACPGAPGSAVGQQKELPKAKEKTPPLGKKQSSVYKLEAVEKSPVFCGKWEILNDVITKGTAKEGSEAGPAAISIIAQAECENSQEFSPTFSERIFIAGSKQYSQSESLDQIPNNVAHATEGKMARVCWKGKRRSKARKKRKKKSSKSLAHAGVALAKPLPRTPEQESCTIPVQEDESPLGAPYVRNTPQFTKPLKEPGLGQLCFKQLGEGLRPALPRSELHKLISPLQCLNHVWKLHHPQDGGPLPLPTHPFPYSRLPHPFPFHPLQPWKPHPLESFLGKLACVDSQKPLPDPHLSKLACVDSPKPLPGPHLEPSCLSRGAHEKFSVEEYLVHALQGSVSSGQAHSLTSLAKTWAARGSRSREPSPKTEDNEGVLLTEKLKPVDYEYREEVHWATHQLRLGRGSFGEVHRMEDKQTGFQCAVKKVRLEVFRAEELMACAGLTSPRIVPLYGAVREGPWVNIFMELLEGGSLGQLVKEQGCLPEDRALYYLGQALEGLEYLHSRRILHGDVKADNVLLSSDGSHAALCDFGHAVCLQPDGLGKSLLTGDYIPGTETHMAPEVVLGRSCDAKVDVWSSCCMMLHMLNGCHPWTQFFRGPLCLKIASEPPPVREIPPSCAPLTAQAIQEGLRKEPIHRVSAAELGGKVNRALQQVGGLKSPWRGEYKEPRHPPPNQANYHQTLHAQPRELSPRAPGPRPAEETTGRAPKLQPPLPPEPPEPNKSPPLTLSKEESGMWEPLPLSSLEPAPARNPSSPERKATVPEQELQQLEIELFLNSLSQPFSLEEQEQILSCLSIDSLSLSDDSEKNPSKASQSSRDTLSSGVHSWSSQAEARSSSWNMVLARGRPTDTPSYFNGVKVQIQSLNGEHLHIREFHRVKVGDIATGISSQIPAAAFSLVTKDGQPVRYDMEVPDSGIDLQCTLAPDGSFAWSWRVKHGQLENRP

Target: T1, Flag-tagged NDRG2 (N-myc downstream-regulated gene 2), stably expressed in HUT102 cells (UniProt Q9UN36)
T1 sequence: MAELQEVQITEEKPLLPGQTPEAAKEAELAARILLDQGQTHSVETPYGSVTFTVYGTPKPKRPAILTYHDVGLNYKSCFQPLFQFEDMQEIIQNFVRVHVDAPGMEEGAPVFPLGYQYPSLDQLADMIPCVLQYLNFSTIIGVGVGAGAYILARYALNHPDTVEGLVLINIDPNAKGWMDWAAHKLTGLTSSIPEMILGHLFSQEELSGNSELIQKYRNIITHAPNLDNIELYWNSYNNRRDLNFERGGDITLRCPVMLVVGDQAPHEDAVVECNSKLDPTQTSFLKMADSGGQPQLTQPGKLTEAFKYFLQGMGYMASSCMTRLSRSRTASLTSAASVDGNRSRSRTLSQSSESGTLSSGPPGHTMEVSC
Test: co-IP; lysates of HUT102 cells stably expressing Flag-NDRG2, treated with MG132; immunoprecipitated with anti-Flag and with anti-NIK antibodies, blotted for the other; washed 3 times with PBS

“NF-κB-inducing kinase (NIK), endogenous in HUT102 cells (from UniProt Q99558 1-947)” was tested, and the binding was “binds”.
